Assay results published in publication PMC6748115.
These are yes or no findings as the source states them, for the method shown. In cells and extracts the contact can be indirect. Some binding calls cover weakened binding; strength is not graded here.

The chains behind the UniProt entries cited, without tags or fusion partners.
UniProt P40336: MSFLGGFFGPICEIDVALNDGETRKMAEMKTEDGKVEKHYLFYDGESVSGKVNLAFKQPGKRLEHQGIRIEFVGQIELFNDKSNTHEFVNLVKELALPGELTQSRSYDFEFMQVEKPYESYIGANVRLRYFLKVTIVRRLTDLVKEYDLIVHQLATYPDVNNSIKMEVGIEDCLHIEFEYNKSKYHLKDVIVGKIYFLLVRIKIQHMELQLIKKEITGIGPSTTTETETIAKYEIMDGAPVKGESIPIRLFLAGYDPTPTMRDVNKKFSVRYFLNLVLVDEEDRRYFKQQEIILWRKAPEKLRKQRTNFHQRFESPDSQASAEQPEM

Molecular target: Vps26a (endogenous, mouse embryonic stem cells) (mouse (endogenous in mouse ESCs)) (UniProt P40336)
Assay: co-IP; Vps26a immunoprecipitation (3 ug antibody overnight at 4 C, protein G magnetic beads) from lysates of WT mouse ESCs during neural differentiation for 0 or 6 days; anti-Nox4 immunoblot; IgG and Vps26a-/- ESCs as controls

B1: Nox4 (endogenous, mouse embryonic stem cells) (enzyme, UniProt Q9JHI8 1-578)
chain: MAVSWRSWLANEGVKHLCLLIWLSLNVLLFWKTFLLYNQGPEYYYIHQMLGLGLCLSRASASVLNLNCSLILLPMCRTVLAYLRGSQKVPSRRTRRLLDKSKTLHITCGVTICIFSGVHVAAHLVNALNFSVNYSEDFLELNAARYQNEDPRKLLFTTIPGLTGVCMVVVLFLMVTASTYAIRVSNYDIFWYTHNLFFVFYMLLLLHVSGGLLKYQTNVDTHPPGCISLNQTSSQNMSIPDYVSEHFHGSLPRGFSKLEDRYQKTLVKICLEEPKFQAHFPQTWIWISGPLCLYCAERLYRCIRSNKPVTIISVINHPSDVMELRMIKENFKARPGQYIILHCPSVSALENHPFTLTMCPTETKATFGVHFKVVGDWTERFRDLLLPPSSQDSEILPFIHSRNYPKLYIDGPFGSPFEESLNYEVSLCVAGGIGVTPFASILNTLLDDWKPYKLRRLYFIWVCRDIQSFQWFADLLCVLHNKFWQENRPDFVNIQLYLSQTDGIQKIIGEKYHTLNSRLFIGRPRWKLLFDEIAKCNRGKTVGVFCCGPSSISKTLHSLSNRNNSYGTKFEYNKESFS
  binding: binds
